These are yes or no findings as the source states them, for the method shown. In cells and extracts the contact can be indirect. Some entries that bind do so weakly or less than the wild type. Sequences can lack the tags named with a protein.
Legend:
Assay in all cases: co-IP; COS-7 cells co-transfected with FLAG-tagged inhibitory core and V5- or HA-tagged ligand or receptor; whole cell extracts (50 mM Tris-HCl pH 7.4, 50 mM NaCl, 1% Triton X-100, 100 mM octyl glucoside) precipitated with anti-FLAG, anti-V5 or anti-HA agarose and immunoblotted
[1] = molecular target: HA-tagged type II receptor ActRIIB (UniProt Q13705)
[2] = molecular target: T1, HA-tagged C-terminal mature GDF11 (ligand) (UniProt O95390)
T1 sequence: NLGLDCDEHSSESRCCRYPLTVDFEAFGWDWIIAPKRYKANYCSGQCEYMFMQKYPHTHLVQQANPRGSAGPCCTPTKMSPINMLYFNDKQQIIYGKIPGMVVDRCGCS

Protein sequences, listed by entry. Tags and fused reporters are not part of them. Residues count along the entry.
UniProt Q13705, residues 19-512: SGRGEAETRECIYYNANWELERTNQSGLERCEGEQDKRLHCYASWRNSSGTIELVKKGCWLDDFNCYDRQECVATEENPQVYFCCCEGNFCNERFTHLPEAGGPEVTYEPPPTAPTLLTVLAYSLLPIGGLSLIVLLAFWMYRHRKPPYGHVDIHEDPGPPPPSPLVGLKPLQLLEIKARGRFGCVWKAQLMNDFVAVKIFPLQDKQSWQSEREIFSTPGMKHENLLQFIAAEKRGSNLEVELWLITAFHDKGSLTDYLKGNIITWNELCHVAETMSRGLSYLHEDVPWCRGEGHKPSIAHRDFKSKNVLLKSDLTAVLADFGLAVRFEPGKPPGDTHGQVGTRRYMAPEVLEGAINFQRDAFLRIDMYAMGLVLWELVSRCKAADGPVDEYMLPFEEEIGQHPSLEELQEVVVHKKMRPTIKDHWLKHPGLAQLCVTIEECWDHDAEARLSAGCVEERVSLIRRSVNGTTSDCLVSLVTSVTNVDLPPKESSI
UniProt P27037, residues 20-513: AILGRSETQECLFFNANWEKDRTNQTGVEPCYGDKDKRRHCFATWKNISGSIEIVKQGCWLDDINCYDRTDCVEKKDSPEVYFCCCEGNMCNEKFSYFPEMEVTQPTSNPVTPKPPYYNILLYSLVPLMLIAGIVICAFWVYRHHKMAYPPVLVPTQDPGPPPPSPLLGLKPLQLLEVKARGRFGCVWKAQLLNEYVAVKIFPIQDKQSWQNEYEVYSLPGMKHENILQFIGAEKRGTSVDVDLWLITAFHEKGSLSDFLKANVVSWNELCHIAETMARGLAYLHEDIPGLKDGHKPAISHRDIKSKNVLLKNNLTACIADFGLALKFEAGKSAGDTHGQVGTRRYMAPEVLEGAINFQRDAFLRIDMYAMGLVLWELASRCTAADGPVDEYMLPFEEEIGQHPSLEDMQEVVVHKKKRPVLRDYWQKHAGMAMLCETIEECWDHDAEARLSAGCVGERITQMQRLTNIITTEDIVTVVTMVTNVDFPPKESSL

[3] = molecular target: T2, HA-tagged type I receptor ALK4 (UniProt P36896)
T2 sequence: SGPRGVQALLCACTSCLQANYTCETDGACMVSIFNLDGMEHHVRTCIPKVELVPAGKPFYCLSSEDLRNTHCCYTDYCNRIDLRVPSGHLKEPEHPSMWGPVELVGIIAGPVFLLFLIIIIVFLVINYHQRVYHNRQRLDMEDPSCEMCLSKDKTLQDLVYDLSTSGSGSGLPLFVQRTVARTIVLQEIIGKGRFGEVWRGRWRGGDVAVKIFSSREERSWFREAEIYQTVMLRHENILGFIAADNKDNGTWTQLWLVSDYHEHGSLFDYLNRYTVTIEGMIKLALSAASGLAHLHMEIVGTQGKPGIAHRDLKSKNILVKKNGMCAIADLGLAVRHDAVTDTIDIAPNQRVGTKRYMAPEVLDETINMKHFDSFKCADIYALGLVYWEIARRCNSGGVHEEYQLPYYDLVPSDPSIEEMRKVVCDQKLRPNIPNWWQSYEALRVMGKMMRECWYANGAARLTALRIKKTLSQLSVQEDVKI

[4] = molecular target: T3, HA-tagged type I receptor ALK5 (UniProt P36897)
T3 sequence: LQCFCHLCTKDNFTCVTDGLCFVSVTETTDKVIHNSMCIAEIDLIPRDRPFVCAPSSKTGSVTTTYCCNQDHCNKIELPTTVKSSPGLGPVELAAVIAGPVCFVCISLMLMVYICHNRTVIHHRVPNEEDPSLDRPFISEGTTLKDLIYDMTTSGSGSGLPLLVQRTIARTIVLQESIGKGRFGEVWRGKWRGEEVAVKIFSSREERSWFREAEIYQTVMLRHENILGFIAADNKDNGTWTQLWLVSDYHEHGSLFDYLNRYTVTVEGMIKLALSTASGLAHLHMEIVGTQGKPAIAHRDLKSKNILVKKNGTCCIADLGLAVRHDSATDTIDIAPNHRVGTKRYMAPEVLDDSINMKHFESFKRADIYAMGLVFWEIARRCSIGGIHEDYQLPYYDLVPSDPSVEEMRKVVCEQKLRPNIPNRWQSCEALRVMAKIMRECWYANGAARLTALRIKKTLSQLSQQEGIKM

[5] = molecular target: T4, V5-tagged C-terminal mature myostatin (ligand) (UniProt O14793)
T4 sequence: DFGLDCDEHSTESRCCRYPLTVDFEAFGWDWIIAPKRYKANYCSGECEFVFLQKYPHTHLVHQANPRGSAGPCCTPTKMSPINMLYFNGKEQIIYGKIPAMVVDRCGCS

[6] = molecular target: HA-tagged type II receptor ActRIIA (UniProt P27037)

Measured: binding

CTWRQNTKSSRIEAIKIQILSKLRLETAP (domain or fragment) [FLAG-tagged inhibitory core of the myostatin prodomain]
binds: [1] | [2] | [3] | [4] | [5] | [6]

— PMC4520684
